This passage reports QT interval results from US8318489B2, “Prostacyclin directed differentiation of cardiomyocytes from human embryonic stem cells” (priority 2005, dated 2012).

The subject of this assay is H3M11 cardiomyocytes. Nature of the assay: Microelectrode array recording of selected cardiomyocytes. It is filed as cell-based, human. As to conditions: 100 nM E-4031; from 350 ms before addition. From the text: H3M11, one of the transgenic hES lines carrying the mouse α-MHCneo transgene, was differentiated in END-2 conditioned media to induce cardiomyocytes and then selected with G418 for 1 week. G418-selected H3M11 cardiomyocytes were dissociated and plated on microelectrode array chips each containing 64 electrodes (Multi Channel Systems MCS GmbH, Reutlingen, Germany). Extracellular recordings were made with the MEA1060 amplifier and MC-Rack software. Sampling rate was 10 kHz. A control recording was made before addition of compounds. Isoproterenol and E-4031 (Sigma Aldrich) were dissolved in water and added to the MEA chamber and allowed to equilibrate for 10-30 min.

For `Cc1cccc(CCN2CCC(C(=O)c3ccc(NS(C)(=O)=O)cc3)CC2)n1` [E-4031], the QT interval came to 580 ms.
